Results: US20120035244A1, “PARP1 TARGETED THERAPY” (THE REGENTS OF THE UNIVERSITY OF MICHIGAN, priority 2010, published 2012)
These are yes or no findings as the source states them, for the method shown. For some assays here: Binding seen in cells or lysates may run through a third protein. Some entries that bind do so weakly or less than the wild type. Tags and fused reporters may be left off the sequences shown.

Sequences of proteins named here, by UniProt entry; tags and fusion partners are left off. Residues count along the entry.
UniProt P09874, residues 2-1014: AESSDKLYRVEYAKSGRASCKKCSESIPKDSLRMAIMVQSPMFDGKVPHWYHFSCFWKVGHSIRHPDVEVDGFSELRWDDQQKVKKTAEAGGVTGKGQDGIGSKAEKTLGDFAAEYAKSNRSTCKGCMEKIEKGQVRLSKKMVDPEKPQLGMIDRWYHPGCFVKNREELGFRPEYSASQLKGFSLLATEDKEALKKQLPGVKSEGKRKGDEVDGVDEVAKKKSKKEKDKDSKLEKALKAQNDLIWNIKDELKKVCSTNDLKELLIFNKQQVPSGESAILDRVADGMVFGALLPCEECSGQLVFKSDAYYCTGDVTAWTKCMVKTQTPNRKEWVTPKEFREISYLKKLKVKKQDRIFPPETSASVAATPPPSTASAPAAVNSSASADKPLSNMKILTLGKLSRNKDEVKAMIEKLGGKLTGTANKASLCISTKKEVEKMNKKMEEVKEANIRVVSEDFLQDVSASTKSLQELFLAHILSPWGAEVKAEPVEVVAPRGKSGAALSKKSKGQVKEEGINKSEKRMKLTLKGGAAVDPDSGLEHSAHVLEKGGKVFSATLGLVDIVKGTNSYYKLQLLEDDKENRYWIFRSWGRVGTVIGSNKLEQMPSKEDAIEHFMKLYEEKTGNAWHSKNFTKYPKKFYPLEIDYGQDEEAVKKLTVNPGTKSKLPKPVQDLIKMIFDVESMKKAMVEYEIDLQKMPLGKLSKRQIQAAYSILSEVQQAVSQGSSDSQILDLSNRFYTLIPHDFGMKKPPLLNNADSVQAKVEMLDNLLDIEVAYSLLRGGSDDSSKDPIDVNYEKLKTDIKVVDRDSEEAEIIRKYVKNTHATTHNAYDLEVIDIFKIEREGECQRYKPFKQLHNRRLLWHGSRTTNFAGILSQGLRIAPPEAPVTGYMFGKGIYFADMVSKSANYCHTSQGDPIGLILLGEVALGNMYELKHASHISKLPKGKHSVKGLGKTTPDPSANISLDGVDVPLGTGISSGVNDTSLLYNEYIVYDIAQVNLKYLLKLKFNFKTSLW
UniProt P78527: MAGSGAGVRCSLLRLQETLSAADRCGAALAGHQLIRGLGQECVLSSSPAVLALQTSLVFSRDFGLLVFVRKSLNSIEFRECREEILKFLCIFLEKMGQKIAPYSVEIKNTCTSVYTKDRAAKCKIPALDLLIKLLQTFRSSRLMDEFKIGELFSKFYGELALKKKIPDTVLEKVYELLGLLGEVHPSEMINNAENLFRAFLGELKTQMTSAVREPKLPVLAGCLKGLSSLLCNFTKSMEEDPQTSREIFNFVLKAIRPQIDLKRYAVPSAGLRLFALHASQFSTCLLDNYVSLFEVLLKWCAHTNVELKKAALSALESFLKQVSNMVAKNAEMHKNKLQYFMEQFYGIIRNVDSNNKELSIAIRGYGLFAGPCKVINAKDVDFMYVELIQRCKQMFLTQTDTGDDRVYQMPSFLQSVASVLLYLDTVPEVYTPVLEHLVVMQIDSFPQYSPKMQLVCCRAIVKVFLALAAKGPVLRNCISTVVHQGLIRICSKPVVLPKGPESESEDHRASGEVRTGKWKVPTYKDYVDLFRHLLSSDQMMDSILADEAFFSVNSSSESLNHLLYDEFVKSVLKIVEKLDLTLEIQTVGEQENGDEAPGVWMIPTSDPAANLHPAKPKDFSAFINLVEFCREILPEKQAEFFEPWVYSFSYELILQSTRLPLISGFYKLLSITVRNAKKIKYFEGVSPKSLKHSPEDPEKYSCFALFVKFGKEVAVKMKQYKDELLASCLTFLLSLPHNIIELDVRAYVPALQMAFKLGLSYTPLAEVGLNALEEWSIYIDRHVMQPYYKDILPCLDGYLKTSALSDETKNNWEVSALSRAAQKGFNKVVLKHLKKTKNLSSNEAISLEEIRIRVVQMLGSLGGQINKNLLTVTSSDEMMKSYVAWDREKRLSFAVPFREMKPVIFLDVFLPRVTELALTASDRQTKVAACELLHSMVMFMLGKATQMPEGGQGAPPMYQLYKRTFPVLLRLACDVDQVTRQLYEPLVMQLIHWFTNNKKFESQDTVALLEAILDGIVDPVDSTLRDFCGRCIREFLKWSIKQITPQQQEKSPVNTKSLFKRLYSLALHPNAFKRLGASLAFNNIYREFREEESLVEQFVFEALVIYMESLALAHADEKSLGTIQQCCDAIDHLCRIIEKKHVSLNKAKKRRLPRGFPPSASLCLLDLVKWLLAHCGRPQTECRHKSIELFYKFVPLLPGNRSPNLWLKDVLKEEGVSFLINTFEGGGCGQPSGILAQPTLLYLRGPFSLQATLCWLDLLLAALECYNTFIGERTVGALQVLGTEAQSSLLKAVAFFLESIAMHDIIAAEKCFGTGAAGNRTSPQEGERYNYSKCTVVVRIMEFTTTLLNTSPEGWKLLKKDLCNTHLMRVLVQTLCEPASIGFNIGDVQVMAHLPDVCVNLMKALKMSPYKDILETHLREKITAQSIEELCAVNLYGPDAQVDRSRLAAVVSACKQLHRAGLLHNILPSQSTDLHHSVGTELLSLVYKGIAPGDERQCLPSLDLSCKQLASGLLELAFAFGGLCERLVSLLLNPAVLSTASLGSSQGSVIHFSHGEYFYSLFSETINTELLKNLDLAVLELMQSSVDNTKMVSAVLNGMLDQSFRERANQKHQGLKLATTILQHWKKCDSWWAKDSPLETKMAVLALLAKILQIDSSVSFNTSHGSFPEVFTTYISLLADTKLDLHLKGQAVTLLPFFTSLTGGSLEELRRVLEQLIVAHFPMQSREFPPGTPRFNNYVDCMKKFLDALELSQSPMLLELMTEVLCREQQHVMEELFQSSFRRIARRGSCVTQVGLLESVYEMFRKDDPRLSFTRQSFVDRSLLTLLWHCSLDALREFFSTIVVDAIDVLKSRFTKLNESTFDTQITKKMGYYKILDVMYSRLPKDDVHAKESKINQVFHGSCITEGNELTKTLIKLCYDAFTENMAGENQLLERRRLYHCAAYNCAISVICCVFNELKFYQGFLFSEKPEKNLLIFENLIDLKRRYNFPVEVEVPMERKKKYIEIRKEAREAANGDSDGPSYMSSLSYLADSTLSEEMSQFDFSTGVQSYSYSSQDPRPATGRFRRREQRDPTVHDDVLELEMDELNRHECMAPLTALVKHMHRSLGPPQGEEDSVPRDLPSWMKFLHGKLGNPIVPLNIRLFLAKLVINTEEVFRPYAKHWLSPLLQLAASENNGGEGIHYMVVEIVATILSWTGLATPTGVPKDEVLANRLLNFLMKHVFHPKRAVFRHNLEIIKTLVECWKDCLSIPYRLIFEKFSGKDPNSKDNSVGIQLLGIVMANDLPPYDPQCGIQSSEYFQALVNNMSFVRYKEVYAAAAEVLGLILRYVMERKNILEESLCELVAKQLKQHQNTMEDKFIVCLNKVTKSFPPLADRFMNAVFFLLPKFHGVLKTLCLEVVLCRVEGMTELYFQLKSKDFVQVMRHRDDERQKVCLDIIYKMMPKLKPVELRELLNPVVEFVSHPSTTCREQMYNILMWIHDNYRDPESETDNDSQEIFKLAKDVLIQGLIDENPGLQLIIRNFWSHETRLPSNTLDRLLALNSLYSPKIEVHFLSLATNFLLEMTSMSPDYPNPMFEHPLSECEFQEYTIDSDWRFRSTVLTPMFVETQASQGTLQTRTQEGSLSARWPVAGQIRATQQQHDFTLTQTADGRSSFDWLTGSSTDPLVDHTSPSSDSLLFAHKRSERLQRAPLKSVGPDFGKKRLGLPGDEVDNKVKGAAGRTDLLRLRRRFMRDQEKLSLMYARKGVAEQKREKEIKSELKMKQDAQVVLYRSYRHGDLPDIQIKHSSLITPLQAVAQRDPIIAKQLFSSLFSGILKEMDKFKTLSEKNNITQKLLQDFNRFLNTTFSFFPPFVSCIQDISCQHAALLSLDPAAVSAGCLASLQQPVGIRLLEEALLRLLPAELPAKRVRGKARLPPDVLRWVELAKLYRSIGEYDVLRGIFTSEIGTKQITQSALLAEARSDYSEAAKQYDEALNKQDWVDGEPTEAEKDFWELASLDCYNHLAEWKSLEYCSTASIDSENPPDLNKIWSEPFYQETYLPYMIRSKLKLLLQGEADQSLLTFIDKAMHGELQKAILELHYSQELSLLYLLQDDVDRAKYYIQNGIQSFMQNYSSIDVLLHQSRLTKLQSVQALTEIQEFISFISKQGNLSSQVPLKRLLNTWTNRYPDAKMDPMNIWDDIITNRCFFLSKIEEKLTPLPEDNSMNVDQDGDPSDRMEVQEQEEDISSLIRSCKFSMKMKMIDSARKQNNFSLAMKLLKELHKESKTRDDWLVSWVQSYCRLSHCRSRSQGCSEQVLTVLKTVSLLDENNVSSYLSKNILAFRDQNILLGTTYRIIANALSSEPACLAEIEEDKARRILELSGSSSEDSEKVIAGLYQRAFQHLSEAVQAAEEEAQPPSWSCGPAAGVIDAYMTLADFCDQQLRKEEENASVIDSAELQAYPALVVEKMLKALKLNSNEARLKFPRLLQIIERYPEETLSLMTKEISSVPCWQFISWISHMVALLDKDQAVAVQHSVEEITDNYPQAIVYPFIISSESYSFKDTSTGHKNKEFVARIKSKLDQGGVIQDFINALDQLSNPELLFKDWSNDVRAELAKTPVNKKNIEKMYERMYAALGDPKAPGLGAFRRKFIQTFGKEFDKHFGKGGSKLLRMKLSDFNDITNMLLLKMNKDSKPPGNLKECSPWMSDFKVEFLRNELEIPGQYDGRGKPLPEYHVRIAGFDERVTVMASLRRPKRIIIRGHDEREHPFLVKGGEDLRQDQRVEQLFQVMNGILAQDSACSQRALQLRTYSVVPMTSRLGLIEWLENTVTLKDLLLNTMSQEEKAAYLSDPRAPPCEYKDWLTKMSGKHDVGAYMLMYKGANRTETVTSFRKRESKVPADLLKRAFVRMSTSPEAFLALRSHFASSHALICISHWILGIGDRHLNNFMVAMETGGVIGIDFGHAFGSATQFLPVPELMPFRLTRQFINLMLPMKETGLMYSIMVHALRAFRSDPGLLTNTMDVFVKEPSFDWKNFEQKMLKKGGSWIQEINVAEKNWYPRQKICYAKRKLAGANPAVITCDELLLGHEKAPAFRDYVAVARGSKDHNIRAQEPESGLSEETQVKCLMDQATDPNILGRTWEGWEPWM

What was measured:
[1] = molecular target: poly-(ADP-ribose) polymerase (PARP1) (human) (UniProt P09874); experiment: IP-Western in PC3 cells overexpressing ERG (FIG. 20b)
[2] = molecular target: poly-(ADP-ribose) polymerase (PARP1) (human) (UniProt P09874); experiment: IP with agarose-coupled ERG antibody from three ERG-rearranged tissues with or without ethidium bromide, Western blot (FIG. 9E)
[3] = molecular target: poly-(ADP-ribose) polymerase (PARP1) (human) (UniProt P09874); experiment: IP-Western in PC3-ERG cells (FIG. 20b)
[4] = molecular target: poly-(ADP-ribose) polymerase (PARP1) (human) (UniProt P09874); experiment: ERG immunoprecipitation from VCaP cells, Western blot (FIG. 1b)
[5] = molecular target: poly-(ADP-ribose) polymerase (PARP1) (human) (UniProt P09874); experiment: ERG immunoprecipitation from VCaP cells in 100 µM ethidium bromide, Western blot (FIG. 1b)
[6] = molecular target: poly-(ADP-ribose) polymerase (PARP1) (human) (UniProt P09874); experiment: co-immunoprecipitation, Western blot (FIG. 1)
[7] = molecular target: poly-(ADP-ribose) polymerase (PARP1) (human) (UniProt P09874); experiment: ERG immunoprecipitation from human prostate cancer tissues, Western blot (FIG. 1c)
[8] = molecular target: DNA-dependent protein kinase catalytic subunit (DNA-PKcs) (human) (UniProt P78527); experiment: IP of epitope-tagged ERG (V5 in VCaP, FLAG in HEK293) and LC-MS/MS; list of interactions identified with high confidence

Measured: binding

B1: ERG, TMPRSS2:ERG gene fusion product (TMPRSS2 exon 1 fused to ERG1 exon 2) (protein, human, UniProt P11308 33-479, looked up)
chain: MTASSSSDYGQTSKMSPRVPQQDWLSQPPARVTIKMECNPSQVNGSRNSPDECSVAKGGKMVGSPDTVGMNYGSYMEEKHMPPPNMTTNERRVIVPADPTLWSTDHVRQWLEWAVKEYGLPDVNILLFQNIDGKELCKMTKDDFQRLTPSYNADILLSHLHYLRETPLPHLTSDDVDKALQNSPRLMHARNTGGAAFIFPNTSVYPEATQRITTRPDLPYEPPRRSAWTGHGHPTPQSKAAQPSPSTVPKTEDQRPQLDPYQILGPTSSRLANPGSGQIQLWQFLLELLSDSSNSSCITWEGTNGEFKMTDPDEVARRWGERKSKPNMNYDKLSRALRYYYDKNIMTKVHGKRYAYKFDFHGIAQALQPHPPESSLYKYPSDLPYMGSYHAHPQKMNFVAPHPPALPVTSSSFFAAPNPYWNSPTGGIYPNTRLPTSHMPSHLGTYY
binds: [1] | [2] | [3] | [4] | [5] | [6] | [7]

B2: Epitope-tagged ERG used as bait for IP-mass spectrometry (V5-tagged in VCaP cells, FLAG-tagged in HEK293 cells) (protein, human, UniProt P11308 47-479, looked up, not shown: small tags and cut ends)
chain: MSPRVPQQDWLSQPPARVTIKMECNPSQVNGSRNSPDECSVAKGGKMVGSPDTVGMNYGSYMEEKHMPPPNMTTNERRVIVPADPTLWSTDHVRQWLEWAVKEYGLPDVNILLFQNIDGKELCKMTKDDFQRLTPSYNADILLSHLHYLRETPLPHLTSDDVDKALQNSPRLMHARNTGGAAFIFPNTSVYPEATQRITTRPDLPYEPPRRSAWTGHGHPTPQSKAAQPSPSTVPKTEDQRPQLDPYQILGPTSSRLANPGSGQIQLWQFLLELLSDSSNSSCITWEGTNGEFKMTDPDEVARRWGERKSKPNMNYDKLSRALRYYYDKNIMTKVHGKRYAYKFDFHGIAQALQPHPPESSLYKYPSDLPYMGSYHAHPQKMNFVAPHPPALPVTSSSFFAAPNPYWNSPTGGIYPNTRLPTSHMPSHLGTYY
binds: [8]
